Measured values as given in publication PMC10132971.

Molecular target: T1, Nse5-TAP (S. cerevisiae) (UniProt Q03718)
T1 sequence: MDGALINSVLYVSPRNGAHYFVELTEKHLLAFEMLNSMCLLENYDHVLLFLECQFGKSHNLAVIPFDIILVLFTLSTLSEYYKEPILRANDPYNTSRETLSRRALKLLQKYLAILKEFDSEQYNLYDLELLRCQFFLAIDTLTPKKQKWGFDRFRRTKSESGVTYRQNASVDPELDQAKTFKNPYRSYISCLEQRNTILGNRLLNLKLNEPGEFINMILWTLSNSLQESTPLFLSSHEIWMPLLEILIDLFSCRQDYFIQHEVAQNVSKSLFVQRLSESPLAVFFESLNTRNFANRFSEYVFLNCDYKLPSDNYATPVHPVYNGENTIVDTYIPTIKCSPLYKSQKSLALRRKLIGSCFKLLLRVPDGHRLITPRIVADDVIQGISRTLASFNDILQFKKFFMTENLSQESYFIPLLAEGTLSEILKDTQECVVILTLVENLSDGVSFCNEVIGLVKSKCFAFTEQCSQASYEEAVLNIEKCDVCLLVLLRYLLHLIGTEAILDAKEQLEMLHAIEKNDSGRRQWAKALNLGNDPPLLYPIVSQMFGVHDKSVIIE
Assay: tandem affinity purification; Nse5/6 subcomplex overexpressed in S. cerevisiae and purified (IgG Sepharose, TEV protease, calmodulin Sepharose); CBB-stained SDS-PAGE

**Q.** How did the binding turn out when Nse6 (S. cerevisiae) was run?
**A.** binds

Results are given in words; binding and its absence hold for the method and conditions named. Binding can be weak; no strength is given.
